Results as given in paper PMC9464236, “Biochemical characterization of a disease-causing human osteoprotegerin variant” (Scientific Reports, 2022).
Positions count from the first letter of the chain named. These are yes or no findings as the source states them, for the method shown. Some entries that bind do so weakly or less than the wild type. One block for each binder: values may come before it.

Legend:
[1] = biological target: OPG-Stop402Gln (human) (UniProt O00300); assay: SDS-PAGE and western blot; culture medium of transfected 293F cells harvested 3 days post transfection, SDS-PAGE, blotted with rabbit anti-OPG polyclonal antibody
[2] = biological target: human osteoprotegerin Stop402Leu mutant with a 19-residue C-terminal appendage (OPG^+19) (human) (UniProt O00300); assay: condition: only reduced with 2-mercaptoethanol (SDS-PAGE); reducing SDS-PAGE; SEC-purified protein reduced with 2-mercaptoethanol, SDS-PAGE, silver staining; both purified
[3] = biological target: OPG-Stop402Tyr (human) (UniProt O00300); assay: SDS-PAGE and western blot; culture medium of transfected 293F cells harvested 3 days post transfection, SDS-PAGE, blotted with rabbit anti-OPG polyclonal antibody

binding [1]: binds
B1: OPG-Stop402Gln (receptor, UniProt O00300 22-401)
chain: ETFPPKYLHYDEETSHQLLCDKCPPGTYLKQHCTAKWKTVCAPCPDHYYTDSWHTSDECLYCSPVCKELQYVKQECNRTHNRVCECKEGRYLEIEFCLKHRSCPPGFGVVQAGTPERNTVCKRCPDGFFSNETSSKAPCRKHTNCSVFGLLLTQKGNATHDNICSGNSESTQKCGIDVTLCEEAFFRFAVPTKFTPNWLSVLVDNLPGTKVNAESVERIKRQHSSQEQTFQLLKLWKHQNKDQDIVKKIIQDIDLCENSVQRHIGHANLTFEQLRSLMESLPGKKVGAEDIEKTIKACKPSDQILKLLSLWRIKNGDQDTLKGLMHALKHSKTYHFPKTVTQSLKKTIRFLHSFTMYKLYQKLFLEMIGNQVQSVKISCLQLEMAIELFPHNWRDPMDE

binding [2]: no binding
B2: human osteoprotegerin Stop402Leu mutant with a 19-residue C-terminal appendage (OPG^+19) (receptor)
chain: B1 chain with Q381L
notes: Osteoprotegerin (OPG, TNFRSF11B), human; complete open reading frame, residues up to 401, followed by the read-through appendage; 19-residue appendage 402-420 made by read-through of the mutated stop codon (Stop402Leu); Secreted; Mixture of higher-order oligomers; also called mutant hOPG; mutant OPG; source: 293-freestyle cells, transiently transfected; purified from medium (heparin Sepharose, …)

binding [3]: binds
B3: OPG-Stop402Tyr (receptor, UniProt O00300 22-401)
chain: B1 chain with Q381Y
